# Test results published in patent US20200207835A1, “SRCP1-BASED THERAPY FOR DISEASES ASSOCIATED WITH PROTEIN AGGREGATION” (THE MEDICAL COLLEGE OF WISCONSIN, INC., priority 2017, published 2020).
# B1: SRCP1: Dictyostelium discoideum serine-rich chaperone protein 1 (SEQ ID NO:2), expressed in cells as RFP-tagged construct (protein)
# chain: MTILSTFTSFSNPPKLNKSSFSSSTGSSLSMGSNSFAWGGGWGGFGGPKGGSFNVDIAGNLIWGVYGFIRGGVGLVKWRGLQKGCKQP
# modifications: RFP tag; Dictyostelium discoideum AX4
# System: proteasome
# Test: RFPSRCP1 turnover in HEK293 cells (western blot)
# Type: cell-based, human
molecule,measurement,setting,value
B1,RFPSRCP1 levels,"HEK293, presence of GFPHttex1Q74",dramatic decrease in ^RFPSRCP1 levels
same,RFPSRCP1 levels,"HEK293, proteasome inhibition (10 μM MG132, 18 hours)",marked stabilization
